Data from US8210776B2, “Calcification method using calcifying bacteria” (Soletanche Freyssinet, priority 2007, dated 2012).
At least one read-out could not be matched to a standard name with certainty. For at least one compound, name, drawing or mass did not settle the structure.

System: S. pasteurii (CIP 66.21 Pasteur)
Test: Screening for sugars that can be assimilated, API strips (API 20 E and API 50CH)
Assay type: cell-based, Sporosarcina pasteurii
Conditions: API 20 E and API 50CH strips, color change (acid production) or assimilation (growth)
Description: The first step was to carry out a screening of the various sugars that exist, in order to identify that or those which is (are) assimilable and which stimulate EPS synthesis in Sporosarcina pasteurii, preferably without inhibiting urease synthesis.
For this, two types of API strips were used: API 20 E and API 50CH. These tests are in the form of microtubes containing dehydrated substrates and which are inoculated with a bacterial suspension.

| Molecule | Results |
| --- | --- |
| N#C[C@H](O[C@@H]1O[C@H](CO[C@@H]2O[C@H](CO)[C@@H](O)[C@H](O)[C@H]2O)[C@@H](O)[C@H](O)[C@H]1O)c1ccccc1 [Amygdalin] | − |
| OC[C@H]1OC(O)[C@H](O)[C@@H](O)[C@@H]1O (some centres unmarked) [D glucose] | − |
| N=C(N)NCCC[C@H](N)C(=O)O [L-arginine] | − |
| O=C([O-])[C@H](O)[C@@H](O)[C@H](O)[C@H](O)CO.[K+] [Potassium glucoNaTe] | − |
| Gentiobiose | − |
